PubChem BioAssay AID493014 (National Center for Advancing Translational Sciences (NCATS), 2011)
The list shows a part of the results. Shown are side measurements of this screen, not its main read-out; they come without a call. The list favours compounds with an active or inconclusive main result. Potencies come from curve fits of mixed quality, noted in brackets.

Assay: qHTS Assay to Find Inhibitors of Chronic Active B-Cell Receptor Signaling
Settings: ABC-DLBCL IkBa-CBG/CBR reporter, luminescence ratio (green luciferase fused to IkBa over red control in TMD8 lymphoma cells), 4 h
Method in brief: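 Concentration-response series (up to 46 uM) were applied to TMD8 dual-reporter cells for 4 h at 37C with doxycycline. Green/red ratio, after filter-overlap correction, defined %Activity; red signal alone was normalised to basal cells and zero luminescence.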

[1] = measured here: CBR red luminescence, cell number
[2] = measured here: IkBa-CBG green luminescence

Structure (SMILES)	AC50 [1]	AC50 [2]
COc1ccc(N/C=C/C(=O)c2cc(OC)c(OC)c(OC)c2)cc1	15.8 µM [rising, partial curve]	20 µM [falling, partial curve]
CCc1ccccc1NC(=O)c1cc(-c2ccc3c(c2)OCO3)on1	1.12 µM [falling, partial curve, poor fit]	–
O=C(CN1CCN(c2ccc(Cl)cc2)CC1)c1ccccc1	35.5 µM [falling, single point]	–
OC(CNCc1ccc(-c2ccccc2)cc1)c1ccccc1 (centres undefined)	35.5 µM [rising, single point]	25.1 µM [falling, partial curve, poor fit]
CN(C)c1cccc(C(=O)NC2CCCc3ccccc32)c1 (centres undefined)	1.58 µM [falling, full curve, poor fit]	–
O=C(/C=C/c1cccc(F)c1)c1ccc(N2CCOCC2)cc1	35.5 µM [rising, single point]	–
CC(C)NC(=O)c1cc2nc(-c3ccco3)cc(C(F)(F)F)n2n1	3.26 µM [rising, full curve, poor fit]	–
O=C(NCCc1c[nH]c2ccccc12)Nc1cccc2ccccc12	2.31 µM [falling, partial curve]	–
CC(C)OC(=O)CSc1nnc(-c2ccccc2)n1N	25.9 µM [falling, single point]	–
CCOC(=O)CNC(=O)c1ccc2[nH]c3ccccc3c2c1	–	8.91 µM [rising, partial curve, poor fit]
CCCn1c(N)c(N(C)C)c(=O)n(CC(=O)Nc2ccc(OC(F)(F)F)cc2)c1=O	4.11 µM [rising, full curve, poor fit]	–
COc1cc([N+](=O)[O-])cc(/C=N/NC(=O)CSc2ccccn2)c1O	7.08 µM [falling, full curve, poor fit]	–
O=C(O)COc1ccc(NC(=O)c2ccc3c(c2)C(=O)N(Cc2ccccc2)C3=O)cc1	0.562 µM [falling, full curve, poor fit]	–
COc1ccc(S(=O)(=O)Nc2c3ccccc3nc(=O)n2-c2ccccc2)cc1	9.2 µM [rising, partial curve, poor fit]	–
COc1ccccc1NC(=O)Nc1nnc(C(C)C)s1	0.58 µM [rising, full curve]	–
O=C(NCCC1=CCCCC1)C1CCN(S(=O)(=O)c2ccc(Br)s2)CC1	25.9 µM [rising, single point]	–
CN(C)CCCN(C(=O)CCc1ccccc1)c1nc2c(F)cccc2s1	16.4 µM [falling, partial curve]	–
CCn1c(-c2ccc(F)cc2)cnc1SCC(=O)N1CCCCC1C (centres undefined)	14.6 µM [rising, partial curve, poor fit]	–
OC(COC(c1ccc(Cl)cc1)c1ccc(Cl)cc1)CN1CCc2ccccc2C1 (centres undefined)	29.1 µM [falling, single point]	–
COc1ccccc1-n1cnc2c(c1=O)c1nc3ccccc3nc1n2-c1ccc(C)c(C)c1	0.58 µM [falling, full curve, poor fit]	–
Nc1ccccc1SCC(O)Cn1ccc2ccccc21 (centres undefined)	4.47 µM [rising, partial curve, poor fit]	–
O=C(Nc1ccc2c(c1)C(=O)N(c1ccccc1)C2=O)C1CCCO1 (centres undefined)	–	0.58 µM [rising, partial curve, poor fit]

Structure (SMILES)	AC50 [1]	AC50 [2]
CCOc1ccccc1CN1CCN(Cc2cc3ccccc3[nH]2)CC1CCO (centres undefined)	10 µM [falling, partial curve]	–
Cc1ccc(NCCC(=O)c2ccc(Cl)c(Cl)c2)cc1	1.41 µM [falling, full curve, poor fit]	–
CSc1nnc(-c2ccccc2)o1	14.1 µM [rising, single point]	–
CC(=O)N(CCC1(c2ccc(C)cc2)CCOC(C(C)C)C1)Cc1ccco1 (centres undefined)	11.2 µM [falling, single point]	14.1 µM [rising, partial curve, poor fit]
O=C(Nc1nc(-c2ccc(-c3ccccc3)cc2)cs1)c1cnccn1	0.517 µM [falling, partial curve, poor fit]	–
O=C(Nc1ccc(OC(F)(F)F)cc1)Oc1ccccc1N1CCCCC1	3.55 µM [falling, full curve]	–
Clc1ccccc1CN1CCN(CCCc2ccccc2)CC1	35.5 µM [rising, single point]	–
Cc1ccc(C(=O)NNC2=NC(C)(C)Cc3ccccc32)cc1	11.2 µM [rising, single point]	–
CC(C)(C)c1ccc(NC(=O)CSc2nnc(-c3n[nH]c4ccccc34)o2)cc1	11.6 µM [falling, partial curve]	–
O=C(O)Cc1ccc(S(=O)(=O)Nc2ccccc2C(=O)O)cc1	6.31 µM [falling, single point]	–
CN(Cc1nc(-c2cccs2)no1)CC1(N2CCOCC2)CCCCC1	0.562 µM [rising, full curve]	–
Cc1ccccc1-c1nnc(-c2ccc(Br)cc2)o1	3.55 µM [rising, full curve]	–
CCCn1c(N)c(C(=O)CSc2n[nH]c(-c3ccc(C)cc3)n2)c(=O)[nH]c1=O	8.2 µM [rising, partial curve]	–
CCOC(=O)C1=c2s/c(=C\c3cccnc3)c(=O)n2C(N)=C(C(=O)OC)C1c1cccnc1 (centres undefined)	0.13 µM [rising, full curve, poor fit]	–
CCNC(=O)NC(=O)COC(=O)CCCc1nc2ccccc2s1	15.8 µM [rising, partial curve, poor fit]	–
OC(CN1CCN(c2ccccc2F)CC1)c1ccc(F)cc1 (centres undefined)	10 µM [rising, partial curve]	–
Cc1nc2c(ccc3nc(NC(=O)c4ccc(S(=O)(=O)N(C)C)cc4)sc32)s1	20 µM [falling, single point]	–
COc1cc(OC)c(OC)cc1/C=N/NC(=S)NCC1CCCO1 (centres undefined)	2.59 µM [falling, full curve]	–
C=CCn1cnc2c(nnn2-c2ccc(Cl)cc2)c1=O	2.82 µM [rising, partial curve]	–
CCCC[n+]1c2ccccc2cc2ccccc21	35.5 µM [falling, single point]	–
COc1cccc(/C=N/NC(=S)Nc2cccc(C(=O)O)c2)c1	10 µM [falling, partial curve]	–
COC(=O)c1cc(NC(=O)Nc2ccccc2OC)cc(C(=O)OC)c1	18.4 µM [falling, single point]	–

Look-ups from the list.
Under AC50 [1], `Cc1ccccc1-c1nnc(-c2ccc(Br)cc2)o1` reads 3.55 µM [rising, full curve]
Under AC50 [2], `O=C(Nc1ccc2c(c1)C(=O)N(c1ccccc1)C2=O)C1CCCO1` (centres undefined) reads 0.58 µM [rising, partial curve, poor fit]

(next part)

Structure (SMILES)	AC50 [1]	AC50 [2]
COc1cccc(OCCOc2ccc(/C=C3\C(=N)N4N=C(S(C)(=O)=O)SC4=NC3=O)cc2OC)c1	0.1 µM [rising, full curve, poor fit]	–
Nc1nc(N)c2ncc(C(=O)CCc3ccccc3)nc2n1	35.5 µM [falling, single point]	–
Nc1nc(-c2ccccc2)cn1/N=C/c1ccccc1	12.6 µM [falling, partial curve, poor fit]	–
CC(=O)c1cc(C#N)c(SCc2ccccc2)nc1C	18.4 µM [rising, partial curve]	16.4 µM [falling, partial curve, poor fit]
O=C(N/N=C/c1ccc2c(c1)OCO2)c1ccc(NS(=O)(=O)c2cccs2)cc1	8.91 µM [falling, partial curve, poor fit]	–
COc1ccccc1OC(=O)CCc1nc2ccccc2s1	17.8 µM [falling, single point]	–
CCN(CC)CCNC(=O)C1(O)c2cc(Br)ccc2NC(=O)N1c1ccc(Cl)cc1 (centres undefined)	6.31 µM [rising, single point]	–
CCOc1cc(NS(=O)(=O)c2ccccc2)c(OCC)cc1NC(=O)c1ccco1	0.146 µM [falling, full curve, poor fit]	–
Cc1cccc(CCNC(=O)CCc2nc(-c3ccccc3F)no2)c1	4.11 µM [falling, partial curve, poor fit]	–
Cc1ccccc1C(=O)Nc1ccc(N2CCCC2)cc1	10 µM [falling, partial curve]	–
COc1cc(/C=C/C(=O)NC(=O)c2ccccc2O)ccc1OC(C)=O	1.41 µM [falling, full curve, poor fit]	–
Cc1ccc(/C=C2/NC(=O)N(c3ccccc3)C2=O)o1	7.94 µM [falling, partial curve]	–
COc1ccc(-c2nc(C=O)cs2)cc1	25.1 µM [falling, single point]	–
Cc1nc(-c2cccc(S(=O)(=O)N3CCCCCC3)c2)cs1	18.4 µM [falling, partial curve, poor fit]	–
Cc1ccc(-n2cnn(-c3ccc([N+](=O)[O-])cc3[N+](=O)[O-])c2=O)cc1	10 µM [rising, partial curve, poor fit]	–
COC(=O)N1c2ccccc2C=Cc2ccccc21	17.8 µM [falling, single point]	–
CCOc1ccc(-c2nnn(CCC(=O)O)n2)cc1OC	13 µM [falling, partial curve, poor fit]	–
COc1ccc(/C(C)=N/NC(=S)NCCc2ccccc2)cc1	17.8 µM [falling, partial curve]	3.55 µM [falling, single point]
O=C(NC1CCCCC1)N(Cc1cc2cc3c(cc2[nH]c1=O)OCCO3)C1CCCCC1	6.51 µM [falling, single point]	–
Cc1ccc(OCCNC(=O)CNC(=O)c2ccc3c(c2)OCO3)cc1	32.6 µM [rising, partial curve, poor fit]	–

Three compounds out of the list, ordered by molar mass, largest number first.
Structure (SMILES)	AC50 [1]	AC50 [2]
CC(=O)c1cc(C#N)c(SCc2ccccc2)nc1C	18.4 µM [rising, partial curve]	16.4 µM [falling, partial curve, poor fit]
Cc1ccccc1C(=O)Nc1ccc(N2CCCC2)cc1	10 µM [falling, partial curve]	–
Cc1ccc(/C=C2/NC(=O)N(c3ccccc3)C2=O)o1	7.94 µM [falling, partial curve]	–
